Source: PubChem BioAssay AID1053133 (Broad Institute, 2014).

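Vaccinia-infected cells with a two-color viral stage reporter; Venus fluorescence read on a plate reader; the cell line is not named here; timing not stated here.
The test concentration is not given here.
Percent change in Venus reporter signal; lower (more negative) values mean stronger inhibition of that viral stage.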

Values are in %.
The controls that fix the scale are not given here.
Common to all entries: measured here: Venus reporter, other viral stage.
Part of the compounds only, not a random draw; the main read-out is not listed here.

Compound | activity change (Venus) (%)
CO[C@@H](CN(C)S(=O)(=O)c1ccc(C)cc1)[C@H](C)CN([C@H](C)CO)S(=O)(=O)c1cccc(Cl)c1 | -44.61
CC(C)NC(=O)N(C)C[C@H]1OCc2ccccc2-c2ccccc2C(=O)N([C@@H](C)CO)C[C@H]1C | -74.3
C[C@H]1CN([C@@H](C)CO)C(=O)c2c(c3ccccc3n2C)-c2ccccc2CO[C@@H]1CN(C)S(=O)(=O)c1ccccc1F | -51.86
C[C@H](CO)N1C[C@H](C)[C@@H](CN(C)CC2CCOCC2)Oc2cc(C#CC3CC3)ccc2S1(=O)=O | -32.4
C[C@@H]1CN([C@@H](C)CO)C(=O)c2cccc(NC(=O)Nc3ccc(F)cc3)c2O[C@@H]1CN(C)C(=O)Nc1cccc2ccccc12 | -27.61
O=C(c1ccc(F)cc1)N1CCCCN2[C@H](CO)[C@@H](c3ccc(-c4ccccc4)cc3)[C@@H]2C1 | -40.81
C[C@@H]1CN([C@@H](C)CO)S(=O)(=O)c2ccc(-c3ccc(F)cc3)cc2O[C@@H]1CN(C)C(=O)Nc1ccccc1F | -50.15
CCC(=O)N1CC2(CN(Cc3ccccc3Cl)C2)c2c([nH]c3cc(OC)ccc23)[C@@H]1CO | -53.63
Cc1ccc(-c2cnc3c(c2)C(=O)N([C@@H](C)CO)C[C@H](C)[C@@H](CN(C)C(=O)Cc2ccccc2)O3)cc1 | -33.66
COc1cccc(NC(=O)N[C@@H]2CC[C@H](CC(=O)Nc3ccc(-c4ccccc4)cc3)O[C@H]2CO)c1 | -39.45
COc1ccc(S(=O)(=O)Nc2ccc3c(c2)CC(=O)N([C@H](C)CO)C[C@H](C)[C@@H](CN(C)Cc2ccc(-c4ccccc4)cc2)O3)cc1 | -30.88
CCCC#Cc1ccc2c(c1)O[C@@H](CN(C)Cc1ccc3c(c1)OCO3)[C@H](C)CN([C@@H](C)CO)S2(=O)=O | -41.51
COc1ccc(CN(C)C[C@H]2OCCCC[C@@H](C)Oc3ccc(NC(=O)Nc4ccc(C(F)(F)F)cc4)cc3C(=O)N([C@@H](C)CO)C[C@H]2C)cc1 | -59.9
C[C@H](CO)N1C[C@H](C)[C@H](CN(C)C(=O)Nc2ccccc2)Oc2ncc(C#Cc3ccccc3)cc2C1=O | -31.08
O=C(Nc1ccccc1)N1CCCCN2[C@H](CO)[C@H](c3ccc(C#Cc4cccnc4)cc3)[C@H]2C1 | -34.03
C/C=C/c1cccc(-c2nc(C(=O)NC3Cc4ccccc4C3)cc3c2[C@H](CCO)N(C(C)=O)C3)c1 | -32.69
C[C@@H]1CN([C@H](C)CO)C(=O)Cc2cc(NC(=O)CCC(F)(F)F)ccc2O[C@@H]1CN(C)Cc1ccc(-c2ccccc2)cc1 | -32.16
COc1ccc(S(=O)(=O)Nc2ccc3c(c2)C(=O)N([C@@H](C)CO)C[C@H](C)[C@H](CN(C)Cc2ccc4c(c2)OCO4)OCCCC[C@@H](C)O3)cc1 | -26.06
C[C@@H]1CN([C@@H](C)CO)S(=O)(=O)c2ccc(C#Cc3ccc(F)cc3)cc2O[C@@H]1CN(C)C(=O)NC1CCCC1 | -29.97
C[C@@H]1CN([C@@H](C)CO)C(=O)c2cc(/C=C/c3ccccc3)cnc2O[C@H]1CN(C)Cc1ccccc1F | -52.4
Cc1ccc(-c2ccc3c(c2)O[C@H](CN(C)C(=O)Nc2ccccc2)[C@@H](C)CN([C@@H](C)CO)S3(=O)=O)cc1 | -46.48
C[C@H](CO)N1C[C@H](C)[C@@H](CN(C)C(=O)c2cccc(F)c2)Oc2ncc(/C=C/c3ccccc3)cc2C1=O | -45.65
COc1cccc(NC(=O)N(C)C[C@H]2Oc3cc(/C=C/c4ccccc4)ccc3S(=O)(=O)N([C@@H](C)CO)C[C@@H]2C)c1 | -66.94
O=C(C[C@H]1CC[C@@H]2[C@H](COC[C@H](O)CN2CC2CCCC2)O1)NCc1ccc(Cl)cc1 | -27.86
OC[C@@H]1[C@@H](c2ccc(C#Cc3ccccc3F)cc2)[C@H]2CN(CC3CCOCC3)CCCCN12 | -52.74
C[C@@H]1CCCCO[C@@H](CN(C)C)[C@H](C)CN([C@H](C)CO)C(=O)c2cc(NC(=O)Nc3ccc(C(F)(F)F)cc3)ccc2O1 | -41.54
N#C[C@H]1[C@@H](c2ccc(-c3ccccc3)cc2)[C@@H](CO)N1S(=O)(=O)Cc1ccccc1 | -43.14
C=CCN1C(=O)[C@]2(O[C@H](CCn3cc([C@H](O)c4ccccc4)nn3)[C@@H]([Si](C)(C)c3ccc(OC)cc3)[C@@H]2C)c2cc(N3CCOC3=O)ccc21 | -47.36
C[C@@H]1CN([C@@H](C)CO)C(=O)c2cc(NC(=O)NC3CCCCC3)ccc2O[C@@H](C)CCCCO[C@@H]1CN(C)Cc1ccc2c(c1)OCO2 | -44.49
C[C@H](CO)N1C[C@H](C)[C@H](CN(C)Cc2ccccc2)OCCCC[C@H](C)Oc2ccc(NC(=O)Nc3ccc(F)cc3)cc2C1=O | -47.79
C[C@H](CO)N1C[C@H](C)[C@H](CN(C)Cc2ccc3c(c2)OCO3)OCc2ccccc2-c2c(n(C)c3ccccc23)C1=O | -45.4
C[C@@H]1CN([C@H](C)CO)S(=O)(=O)c2ccc(C#CC3CC3)cc2O[C@@H]1CN(C)Cc1ccncc1 | -44.29
C[C@@H]1CN([C@H](C)CO)C(=O)c2cc(NC(=O)Nc3ccc(C(F)(F)F)cc3)ccc2O[C@@H](C)CCCCO[C@@H]1CN(C)Cc1ccccc1 | -55.22
O=C(C1CCCC1)N1CC(=O)N2[C@@H](CO)[C@H](c3ccc(C#Cc4cccc(F)c4)cc3)[C@@H]2C1 | -44.54
Cc1ccc(S(=O)(=O)Nc2ccc3c(c2)C(=O)N([C@H](C)CO)C[C@H](C)[C@H](CN(C)Cc2ccc4c(c2)OCO4)OCCCC[C@H](C)O3)cc1 | -70.43
CN1C[C@@H]2[C@H](c3ccccc31)[C@@H](CO)N2Cc1ccccc1 | -40.91
COc1ccc(C#Cc2ccc([C@H]3[C@@H](CO)N4CCCCN(C(=O)Cc5cccnc5)C[C@@H]34)cc2)cc1 | -32.15
CCCN(C)C[C@@H]1OCCCC[C@H](C)Oc2ccc(NS(=O)(=O)c3ccc(C)cc3)cc2C(=O)N([C@H](C)CO)C[C@@H]1C | -38.78
Cc1ccccc1-c1ccc2c(c1)O[C@@H](CN(C)C(=O)Nc1ccccc1)[C@H](C)CN([C@H](C)CO)S2(=O)=O | -28.99
O=C(Nc1cc(F)ccc1F)N1CC(=O)N2[C@H](C1)[C@@H](c1ccc(/C=C/c3ccccc3)cc1)[C@@H]2CO | -40.28
COc1cccc(NC(=O)N(C)C[C@H]2Oc3cc(/C=C/c4ccccc4)ccc3S(=O)(=O)N([C@H](C)CO)C[C@H]2C)c1 | -37.91
C[C@@H]1CCCCO[C@H](CN(C)CC2CCCCC2)[C@H](C)CN([C@H](C)CO)C(=O)c2cc(NC(=O)Nc3ccc(F)cc3)ccc2O1 | -67.37
COc1ccccc1-c1cnc2c(c1)C(=O)N([C@H](C)CO)C[C@H](C)[C@@H](CN(C)Cc1ccc(F)cc1)O2 | -36

For reference, 3 entries once more:

| Compound | activity change (Venus) (%) |
|---|---|
| `COc1ccc(S(=O)(=O)Nc2ccc3c(c2)C(=O)N([C@@H](C)CO)C[C@H](C)[C@H](CN(C)Cc2ccc4c(c2)OCO4)OCCCC[C@@H](C)O3)cc1` | -26.06 |
| `C[C@H](CO)N1C[C@H](C)[C@H](CN(C)C(=O)Nc2ccccc2)Oc2ncc(C#Cc3ccccc3)cc2C1=O` | -31.08 |
| `C/C=C/c1cccc(-c2nc(C(=O)NC3Cc4ccccc4C3)cc3c2[C@H](CCO)N(C(C)=O)C3)c1` | -32.69 |